Measurements: patent publication US5770434A, “Soluble peptides having constrained, secondary conformation in solution and method of making same” (IXSYS Incorporated, priority 1995, dated 1998)
At least one peptide structure holds a part that was inferred or is arguable (an end, a ring closure or a residue). Bridge positions count the residues as written; N and C are the ends. Peptide text beside a SMILES is read from it.

System: J2B9 monoclonal antibody
Assay: BIAcore automated biosensor binding of monoclonal antibody to immobilized peptide
[1] = peptide immobilized by its amino terminus on the sensor chip, 0.016-2.3 nM J2B9 antibody

Compound	dissociation rate after reoxidation (linearized peptide reoxidized to reform the cyclized peptide)	affinity constant (K) [1]	association constant (Ka) [1]	dissociation constant (Kd) [1]	dissociation rate (disulfide bond reduced with 10 mM dithiothreitol on the chip)	dissociation of antibody from linear peptide relative to cyclized peptide (linear versus cyclized peptide)
CC[C@H](C)[C@@H]1NC(=O)[C@H](Cc2ccc(O)cc2)NC(=O)CNC(=O)[C@H](CC(C)C)NC(=O)[C@H](Cc2c[nH]c3ccccc23)NC(=O)[C@H](Cc2c[nH]cn2)NC(=O)[C@H](CC(=O)O)NC(=O)[C@H]([C@@H](C)O)NC(=O)[C@H](CO)NC(=O)[C@@H](NC(=O)[C@H](CCCCN)NC(=O)[C@H](CO)NC(=O)[C@H](CCC(N)=O)NC(=O)[C@@H](N)[C@@H](C)O)CSSC[C@@H](C(=O)N[C@H](C(=O)N[C@@H](Cc2ccc(O)cc2)C(=O)N[C@@H](CCCNC(=N)N)C(=O)N[C@@H](CCCNC(=N)N)C(=O)O)[C@@H](C)O)NC(=O)[C@H](CCSC)NC(=O)[C@H]([C@@H](C)CC)NC(=O)[C@H](Cc2ccccc2)NC(=O)[C@H](Cc2ccc(O)cc2)NC(=O)[C@H](CCC(=O)O)NC1=O [cyclized form of the peptide] (H-TQSKCSTDHWLGYIEYFIMCTYRR-OH; disulfide 5-20)	~10^-4	8.4e+08 M	370000 M⁻¹ s⁻¹	0.00045 s⁻¹		
CC[C@H](C)[C@H](NC(=O)[C@H](Cc1ccc(O)cc1)NC(=O)CNC(=O)[C@H](CC(C)C)NC(=O)[C@H](Cc1c[nH]c2ccccc12)NC(=O)[C@H](Cc1c[nH]cn1)NC(=O)[C@H](CC(=O)O)NC(=O)[C@@H](NC(=O)[C@H](CO)NC(=O)[C@H](CS)NC(=O)[C@H](CCCCN)NC(=O)[C@H](CO)NC(=O)[C@H](CCC(N)=O)NC(=O)[C@@H](N)[C@@H](C)O)[C@@H](C)O)C(=O)N[C@@H](CCC(=O)O)C(=O)N[C@@H](Cc1ccc(O)cc1)C(=O)N[C@@H](Cc1ccccc1)C(=O)N[C@H](C(=O)N[C@@H](CCSC)C(=O)N[C@@H](CS)C(=O)N[C@H](C(=O)N[C@@H](Cc1ccc(O)cc1)C(=O)N[C@@H](CCCNC(=N)N)C(=O)N[C@@H](CCCNC(=N)N)C(=O)O)[C@@H](C)O)[C@@H](C)CC [linear peptide] (H-TQSKCSTDHWLGYIEYFIMCTYRR-OH)					0.00154 s	three times faster
